# Measurements as given in PubChem BioAssay AID2517 (National Center for Advancing Translational Sciences (NCATS), 2010).
# Sequences of proteins named here, by UniProt entry; tags and fusion partners are left off.
# UniProt P27695, whole entry, looked up: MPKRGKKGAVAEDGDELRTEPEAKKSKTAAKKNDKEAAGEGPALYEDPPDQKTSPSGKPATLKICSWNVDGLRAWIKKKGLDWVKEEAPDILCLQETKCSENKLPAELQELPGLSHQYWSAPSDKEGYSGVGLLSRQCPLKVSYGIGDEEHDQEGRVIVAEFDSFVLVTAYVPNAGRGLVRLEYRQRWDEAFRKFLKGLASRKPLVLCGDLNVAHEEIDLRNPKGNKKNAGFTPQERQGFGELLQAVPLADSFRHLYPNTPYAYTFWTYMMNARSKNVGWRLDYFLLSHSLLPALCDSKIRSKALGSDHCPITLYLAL
# Values joined by “and” are separate entries in the source; they are usually repeats but may differ in a detail not shown here. Equal values may be shown once. Among all 350,000 compounds or so, about 1,200 (0.34%) were called active. The shares of active, inactive and inconclusive entries below differ from those in the screen. Calls follow the shape of the dose curve; as a rule, active = well fitted inhibition curve with a large enough effect; inconclusive = small, poorly fitted or top-dose-only effect; inactive = no such curve, though single readings can be large or run the other way. Potencies of inconclusive entries are doubtful fits and often do not repeat.
# Target: DNA repair nuclease/redox regulator APEX1 (Homo sapiens) (UniProt P27695)
# Assay: qHTS Assay for Inhibitors of the Human Apurinic/apyrimidinic Endonuclease 1 (APE1); also: nearly all actives have a fitted effect of over 55% in size
# Details: recombinant APE1, TAMRA/BHQ-2 abasic DNA cleavage fluorescence; series mostly up to 65.8 µM
# How it was run: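 APE1 at 0.75 nM final was preincubated with compound 15 min at room temperature, then 50 nM double-stranded THF abasic-site substrate (5'-TAMRA/3'-BHQ-2) was added. Fluorescence (ex 525/em 598 nm) was read kinetically; third-minus-first read gave activity.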
# Potency is read from the fitted curve at half-maximal effect.
row,Molecule,Potency
1,Cc1nc2c(ccc3nc(NC(=O)C(c4ccccc4)c4ccccc4)sc32)s1,"inconclusive: 3.55 µM [inhibitor, single point]"
2,COc1cccc(Nc2nc(-c3sc(NC(=O)CC(C)C)nc3C)cs2)c1,"inconclusive: 35.5 µM [inhibitor, single point]"
3,N#Cc1ccc(C[C@@H](NS(=O)(=O)c2ccc(C(=O)O)cc2)C(=O)O)cc1,inactive
4,Cc1cc(C)nc(/N=C(\N)Nc2ccc3c(c2)OCCO3)n1,inactive
5,COC(=O)[C@@]1(Cc2ccc(F)cc2)[C@H]2c3cc(C(=O)N4CCCC4)n(CC4CC4)c3C[C@H]2CN1C(=O)c1ccccc1,"inconclusive: 20 µM [inhibitor, single point]"
6,COc1ccc(NC(=O)CN(C)S(=O)(=O)c2cnc[nH]2)cc1OC,"inconclusive: 33.6 µM [inhibitor, single point]"
7,Cc1c2cnn(CC(=O)Nc3c(F)c(F)cc(F)c3F)c(=O)c2c(C)n1Cc1ccc(F)cc1,inactive
8,O=C(COC(=O)c1ccccc1Nc1cccc(C(F)(F)F)c1)NCc1ccco1,"inconclusive: 22.4 µM [inhibitor, single point]"
9,Cc1ccc(S(=O)(=O)N(CC(=O)O)Cc2ccccc2F)cc1,"inconclusive: 10 µM [inhibitor, partial curve, poor fit]"
10,CC(C)CCNC(=O)C1CCN(S(=O)(=O)c2ccc3nc4c(c(C(=O)O)c3c2)CCCCC4)CC1,inactive
11,OCCC1CN(CCCn2cccn2)CCN1C1CCCCC1 (stereo unspecified),inactive
12,CC(=O)Nc1cccc(OCC(=O)Nc2ccccc2)c1,inactive
13,CC(Oc1ccc2ccccc2c1)C(=O)NNC(=O)Nc1ccccc1F (stereo unspecified),inactive
14,NC(=S)N1CCCc2ccccc21,"inconclusive: 8.91 µM [inhibitor, single point]"
15,CS(=O)(=O)c1ccc(C(=O)Nc2nc(-c3ccco3)c(-c3ccco3)s2)cc1,inactive
16,N[C@H](C(=O)O)[C@@H]1[C@@H](C(=O)O)C1(F)F,"inconclusive: 39.8 µM [inhibitor, partial curve]"
17,CCOC(=O)CN(C(=O)CSc1nnc(-c2ccncc2)n1CCCOC)c1ccccc1,"inconclusive: 0.447 µM [inhibitor, full curve, poor fit]"
18,O=C(N/N=C\c1cccnc1)c1cc(-c2ccc(Cl)s2)[nH]n1,"inconclusive: 39.8 µM [inhibitor, single point]"
19,O=C(O)c1cccc(N2C(=O)c3ccc4c5c(ccc(c35)C2=O)C(=O)N(c2cccc(C(=O)O)c2)C4=O)c1,inactive
20,C=C(N(C)C)[C@]1(C)C[C@H]1[C@H](NC(=O)CNC(=O)OCc1ccccc1)c1ccccc1,inactive
21,O=C(Nc1ccccc1)c1ccc(CN2CCc3ccccc3C2)cc1,inactive
22,CCOC(=O)C1CCCN(C(=O)CSc2nccn2C)C1 (stereo unspecified),"inconclusive: 0.316 µM [inhibitor, full curve, poor fit]"
23,COc1cc(/C=N/NC(=O)CCc2ccccc2)ccc1O,inactive
24,O=c1c(Cl)c(N/N=C/c2ccc(Br)cc2)cnn1-c1ccccc1,inactive

row,Molecule,Potency
1,CCc1nc(N2CCCC(C)C2)c2oc3ccccc3c2n1 (stereo unspecified),"inconclusive: 44.7 µM [inhibitor, single point]"
2,COc1ccc(C(=O)Nc2nnc(CC(=O)N/N=C/c3ccc(O)cc3O)s2)cc1,inactive
3,COC(C[C@H](O)C[C@@H](O)[C@@H](C)OCc1ccccc1)OC,"inconclusive: 3.55 µM [inhibitor, single point]"
4,CSc1ccc(C(=O)C2CCCN(Cc3cccn3-c3cccnc3)C2)cc1 (stereo unspecified),"inconclusive: 20 µM [inhibitor, single point]"
5,COc1cccc(C(=O)CC2c3c(c(Br)c4c(c3OC)OCO4)CCN2C)c1 (stereo unspecified),"inconclusive: 39.8 µM [inhibitor, single point]"
6,CC1=C(C(=O)OC(C)C)C2(O)C(=O)c3ccccc3C2(O)N1 (stereo unspecified),"inconclusive: 3.16 µM [inhibitor, full curve, poor fit]"
7,O=C(COC(=O)c1ccc([N+](=O)[O-])s1)NC(c1ccccc1)c1ccccc1,inactive
8,O=C(NNC(=O)c1ccncc1)c1ccncc1,"inconclusive: 0.02 µM [inhibitor, full curve]"
9,H-MAGRSGDSDEDLLKAV-OH,"inconclusive: 31.6 µM [inhibitor, single point]"
10,CCCCOn1c(C)c(C(C)=O)c2c3no[n+]([O-])c3ccc21,"inconclusive: 0.0282 µM [inhibitor, full curve, poor fit]"
11,Cc1ccc(N=C2NC(=O)/C(=C\c3ccco3)S2)cc1,"inconclusive: 39.8 µM [inhibitor, single point]"
12,O=C(O)Cc1csc(-c2ccccc2)n1,"inconclusive: 44.7 µM [inhibitor, single point]"
13,Cc1cc(Nc2ccccc2)nn1C(=O)c1ccccc1,"inconclusive: 10 µM [inhibitor, partial curve]"
14,Cc1onc(-c2c(F)cccc2Cl)c1C(=O)NC1CCSC1=O (stereo unspecified),"inconclusive: 4.47 µM [inhibitor, single point]"
15,Cn1cc(C[C@H](C(=O)O)N2C(=O)c3ccc(C(=O)O)cc3C2=O)c2ccccc21,"inconclusive: 35.5 µM [inhibitor, single point]"
16,OCCN(CCO)c1nc(N2CCCCC2)c2nc(N(CCO)CCO)nc(N3CCCCC3)c2n1,"inactive and inconclusive: 17.8 µM [inhibitor, single point]"
17,C#CCOn1c(-n2nc(C)cc2C)nc2ccccc2c1=O,inactive
18,CCOC(=O)c1cc2c(ccn2C)n1CC(=O)N1CCN(c2cccc(C(F)(F)F)c2)CC1,"inconclusive: 39.8 µM [inhibitor, single point]"
19,CCOC(=O)CNC(=O)C1CCCc2c1[nH]c1ccc(Cl)cc21 (stereo unspecified),"inconclusive: 44.7 µM [inhibitor, single point]"
20,Cc1ccc(C(C(=O)NCc2ccco2)N(C(=O)CNC(=O)c2cccs2)c2c(C)cccc2C)cc1 (stereo unspecified),"inconclusive: 8.91 µM [inhibitor, single point]"
21,COc1ccc(C2C(C(C)=O)=C(C)N=c3s/c(=C\c4ccco4)c(=O)n32)c(OC)c1 (stereo unspecified),"inconclusive: 35.5 µM [inhibitor, single point]"
22,COc1cc(C2C(C#N)=C(N)Oc3n[nH]c(-c4cccnc4)c32)ccc1OCC(N)=O (stereo unspecified),inactive
23,C/C(CCC(C)C)=N\NS(=O)(=O)c1ccc(C)c([N+](=O)[O-])c1,inactive
24,CCOC(=O)C1CCN(C(=O)CSc2ccc(Br)cc2)CC1,"inconclusive: 11.2 µM [inhibitor, partial curve, poor fit]"

# Laid out differently: results already given
row	Molecule	Potency
11	Cc1ccc(N=C2NC(=O)/C(=C\c3ccco3)S2)cc1	inconclusive: 39.8 µM [inhibitor, single point]
12	O=C(O)Cc1csc(-c2ccccc2)n1	inconclusive: 44.7 µM [inhibitor, single point]
13	Cc1cc(Nc2ccccc2)nn1C(=O)c1ccccc1	inconclusive: 10 µM [inhibitor, partial curve]
14	Cc1onc(-c2c(F)cccc2Cl)c1C(=O)NC1CCSC1=O (stereo unspecified)	inconclusive: 4.47 µM [inhibitor, single point]
15	Cn1cc(C[C@H](C(=O)O)N2C(=O)c3ccc(C(=O)O)cc3C2=O)c2ccccc21	inconclusive: 35.5 µM [inhibitor, single point]

# Remaining list, next part.

row,Molecule,Potency
1,COc1cc(/C=C/C(=O)O)cc(S(=O)(=O)Nc2ccccc2C(=O)NCc2ccco2)c1OC,inactive
2,CCCCC(=O)c1ccc(O)cc1,inactive
3,COc1ccccc1NC(=O)C1=C(C)NC(SCC(=O)c2ccccc2)=C(C#N)C1c1ccco1 (stereo unspecified),"inconclusive: 35.5 µM [inhibitor, single point]"
4,CCCCCCC(c1c(C)n(C)n(-c2ccccc2)c1=O)c1c(C)n(C)n(-c2ccccc2)c1=O,"inconclusive: 0.355 µM [inhibitor, full curve, poor fit]"
5,O=C(CSc1ncn[nH]1)CSc1ncn[nH]1,inactive
6,Cc1ccc2sc(C)[n+](CCCS(=O)(=O)[O-])c2c1,inactive
7,CC(OC(=O)c1ccco1)C(=O)NC1CCCCC1 (stereo unspecified),"inconclusive: 17.8 µM [inhibitor, partial curve, poor fit]"
8,O=C(Nc1ccc2c(c1)OCO2)C1CCCN1C(=O)Nc1ccccc1F (stereo unspecified),"inconclusive: 0.0045 µM [inhibitor, full curve, poor fit]"
9,Cc1sc(-n2c(C)cc(C=O)c2C)c(C(=O)O)c1C,inactive
10,Cc1ccc(S(=O)(=O)Oc2ccc(N=Nc3ccc(-c4ccc(N=Nc5c(O)ccc6cc(S(=O)(=O)O)cc(S(=O)(=O)O)c56)c(C)c4)cc3C)cc2)cc1,active: 35.5 µM
11,CCOC(=O)C1=C(CSc2nc3c(cc2C#N)CN(C)CC3)OC(N)=C(C#N)C1c1ccccc1 (stereo unspecified),"inconclusive: 28.2 µM [inhibitor, single point]"
12,COc1ccc(OC)c(/C=C/C(=O)Nc2cccc(S(=O)(=O)NC3=NCCCCC3)c2)c1,inactive
13,O=C(NCCc1ccc(Cl)cc1Cl)c1ccc2nc[nH]c2c1,inactive
14,O=C(O)C1CC=CCC1C(=O)N1CCc2ccccc21 (stereo unspecified),"inconclusive: 11.2 µM [inhibitor, partial curve, poor fit]"
15,O=C1c2cccnc2-c2ncccc21,inactive
16,O=C(Cc1cccc2ccccc12)NN1C(=O)CSC1=S,inactive
17,C/C(CC(=O)N1CCN(C=O)CC1)=N\NC(=O)c1ccc([N+](=O)[O-])cc1,inactive
18,O=S(=O)(Nc1cccc(-c2nc3cccnc3s2)c1)c1ccc2c(c1)OCCO2,"inconclusive: 20 µM [inhibitor, partial curve, poor fit]"
19,Cc1onc(-c2ccccc2)c1C(=O)Nc1cccc(OC(C)C)c1,"inconclusive: 8.91 µM [inhibitor, single point]"
20,O=C(c1cccc(N2C(=O)C3C4C=CC(C4)C3C2=O)c1)N1CCCc2ccccc21 (stereo unspecified),"inconclusive: 10 µM [inhibitor, partial curve]"
21,CC/C(=N\NC(=O)CSCc1ccccc1Br)c1ccc2c(c1)OCCO2,"inconclusive: 22.4 µM [inhibitor, single point]"
22,Cc1cc(C)nc(SCc2cn3c(C)cc(C)nc3n2)n1,"inconclusive: 20 µM [inhibitor, partial curve]"
23,c1ccc(CNCCC(Cc2ccccc2)c2ccco2)cc1 (stereo unspecified),"inconclusive: 3.16 µM [inhibitor, full curve, poor fit]"
